PubChem BioAssay AID504744 – Drosophila RNAi Screening Center | 2011

Screen: 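Identify dsRNAs that increase or decrease phospho-dAkt after insulin treatment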 (primary screen)
Cells: Drosophila Kc167 cells
Reagent: long dsRNA against Drosophila genes, 250 ng dsRNA per well of a 384-well plate
Timing: 3 days of knock-down, then overnight serum-free starvation before stimulation
Treatment: bovine insulin at 387 nM for 10 minutes after 12 h without serum
Measured: 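Per-well phospho-dAkt level from an in-cell fluorescent antibody stain, divided by a DNA-dye signal; log2 residuals turned into z-scores that take cell number into account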
Active means: 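Under insulin, a gene counts as a hit if the average z-score of two replicates lies above 2.5 or below -2.5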
The screen tested about 23,000 reagents; shown is a random part of those that have a named target and a result. In the full data, 98 (0.43%) are marked active. 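Only hit calls are given; the phospho-dAkt signals, z-scores and hit direction were not deposited.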 Reagents against one gene are numbered here. A plus sign joins genes that one reagent is predicted to hit. No sequences are given here.

target gene,reagent,outcome
Cpr78Ca,1,inactive
CG8888,1,inactive
CG8888,2,inactive
yl,1,inactive
sel,1,inactive
CG42675,1,inactive
CG42675,2,inactive
CG1791,1,inactive
CG30393,1,inactive
can,1,inactive
PlexA,1,inactive
corto,1,inactive
corto,2,inactive
CG31663,1,inactive
CG31663,2,inactive
CG31663,3,inactive
CG31663,4,inactive
Gbp1,1,inactive
BthD,1,inactive
CG12817 + CG12420,1,inactive
CG32148,1,inactive
obst-B,1,inactive
Inos,1,inactive
CG4291,1,inactive
CG8303,1,inactive
CG34426,1,inactive
CG10660,1,inactive
7B2,1,inactive
CG3739,1,inactive
dpr16,1,inactive
dpr16,2,inactive
CG7546,1,inactive
CG7546,2,active
CG7546,3,inactive
CG15425,1,inactive
js,1,inactive
CG7382,1,inactive
Sgs3,1,inactive
CG32374,1,inactive
mRpL23,1,inactive
Rbp1-like,1,inactive
Rbp1-like,2,inactive
IscU,1,inactive
Adgf-A,1,inactive
VhaAC39-2,1,inactive
kek1,1,inactive
PH4alphaNE3,1,inactive
CG18666,1,inactive
Tango1,1,inactive
CG15614,1,inactive
CG9098,1,inactive
CG9098,2,inactive
Ice2,1,inactive
rtp,1,inactive
boca,1,inactive
BomS4,1,inactive
Wdr62,1,inactive
Wdr62,2,inactive
Wdr62,3,inactive
Wdr62,4,inactive
Mhcl,1,inactive
Mhcl,2,inactive
Mhcl,3,inactive
Df31,1,inactive
Df31,2,inactive
mon2,1,inactive
slbo,1,inactive
salto,1,inactive
CG5938,1,inactive
CG3769,1,inactive
IFT20 + CG10395,1,inactive
Ir56b,1,inactive
Tsp42Eh,1,inactive
dan,1,inactive
Usp15-31,1,inactive
Usp15-31,2,inactive
CG34176,1,inactive
CG18577,1,inactive
upd3,1,inactive
upd3,2,inactive
upd3,3,inactive
CG9517 (retired record),1,inactive
CG9517 (retired record),2,inactive
CG33642,1,inactive
acj6,1,inactive
CSN8,1,inactive
CG13437,1,inactive
ppk18,1,inactive
Fgop2,1,inactive
Trxr1,1,inactive
Trxr1,2,inactive
CG9903,1,inactive
ND-B8,1,inactive
Men,1,inactive
Men,2,inactive
Men,3,inactive
wds,1,inactive
Sirt2,1,inactive
CG9101,1,inactive
CG2767,1,inactive
Cypl,1,inactive
CG34181,1,inactive
CG30008,1,inactive
AP-2sigma,1,inactive
CG5188,1,inactive
CG4036,1,inactive
CG4563,1,inactive
CG3520,1,inactive
CG30371,1,inactive
mbt,1,inactive
CG5608,1,inactive
CG10588,1,inactive
MetRS-m,1,inactive
MetRS-m,2,inactive
rho,1,inactive
CG9784,1,inactive
CG11370,1,inactive
Idi,1,inactive
CG14841,1,inactive
ppk5,1,inactive
nompC,1,inactive
CG32856,1,inactive
CG9632,1,inactive
RpL14,1,inactive
ppk28,1,inactive
CIA30,1,inactive
CG18530,1,inactive
Sod3,1,inactive
CG6900 (retired record),1,inactive
Rrp6,1,inactive
Srp72,1,active
CG13670,1,inactive
YME1L,1,inactive
cathD,1,inactive
CG33286,1,inactive
CG15879,1,inactive
Sam-S,1,inactive
comm3,1,inactive
comm3,2,inactive
comm3,3,inactive
CG9993,1,inactive
CG3611,1,inactive
Dpm1,1,inactive
CanA1,1,inactive
Dnali1,1,inactive
CG3740,1,inactive
NdufV3,1,inactive
CG5174,1,inactive
Msr-110,1,inactive
tio,1,inactive
ham,1,active
ham,2,inactive
ham,3,inactive
FER,1,inactive
FER,2,inactive
CG12923,1,inactive
CG17195,1,inactive
CR18228,1,inactive
mmm,1,inactive
Nuak,1,inactive
Nuak,2,inactive
Nuak,3,inactive
aft,1,inactive
CG3764,1,inactive
CG32354,1,inactive
CG32354,2,inactive
CG32354,3,inactive
Decay,1,inactive
Bin1,1,inactive
Hipk,1,inactive
Hipk,2,inactive
Ac3,1,inactive
wge,1,inactive
wge,2,inactive
GlyT,1,inactive
Taf2,1,inactive
tst,1,inactive
CG6479,1,inactive
smp-30,1,inactive
CG14546,1,inactive
sphe,1,inactive
csw,1,inactive
Ugt301D1,1,inactive
E(spl)m8-HLH,1,inactive
CG10466,1,inactive
CG1888,1,inactive
CG6125,1,inactive
AANATL7,1,inactive
CG3092,1,inactive
Tdc1,1,inactive
CG30334,1,inactive
Rh4 + sina,1,inactive
mRpL14,1,inactive
CG7601,1,inactive
sc,1,inactive
Prp18,1,inactive
CG42249,1,inactive
CG42249,2,inactive
veli,1,inactive
Cyp313a1,1,inactive

Targets above whose target name starts with S or s (11):
target gene,reagent,outcome
sel,1,inactive
Sgs3,1,inactive
slbo,1,inactive
salto,1,inactive
Sirt2,1,inactive
Sod3,1,inactive
Srp72,1,active
Sam-S,1,inactive
smp-30,1,inactive
sphe,1,inactive
sc,1,inactive
